PubChem BioAssay AID686938 – Drosophila RNAi Screening Center – 2013
In all, the deposit lists about 23,000 reagents; shown is a random part of those with a known target gene and a result. Of all reagents, 75 (0.33%) were called active. 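Raw plate signals without normalisation; calls rest on plate z-scores that were not deposited; ratio present for only 364 wells.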 Unmarked entries are inactive. The record does not give: the dose of the treatment.

- Test: 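Knock-downs reducing store-operated calcium influx in Drosophila cells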 (primary screen)
- System: Drosophila S2R+ cells
- Knock-down reagent: long dsRNA against Drosophila genes, about 0.25 µg dsRNA per well, roughly 10,000 cells
- Timing: 5 days of knock-down before the calcium assay
- Conditions: thapsigargin (SERCA pump blocker) to empty calcium stores; entry signal taken 4 min after adding it
- Read-out: 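Duplicate raw fluo-4 intensities per well from a plate reader, at rest and four minutes after thapsigargin emptied calcium stores; entry-to-rest ratio filled for only some wells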
- Direction: calcium entry signal: higher = stronger calcium signal after store depletion; entry to resting ratio: higher = more calcium entry relative to resting level; resting calcium signal: higher = higher resting calcium signal
- Active means: 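Hit if the duplicate-averaged plate z-score for entry over resting signal is under −3; wells with weak total dye signal (Fmax z < −2) or more than 5 off-targets removed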
- Calls: active = strongly reduced calcium entry; inactive = no strong reduction

For Osi8 [DRSC12277], the values are calcium entry signal, replicate 1 (fluorescence units) = 3.59e7; calcium entry signal, replicate 2 (fluorescence units) = 3.71e7; resting calcium signal, replicate 1 (fluorescence units) = 1.73e7; resting calcium signal, replicate 2 (fluorescence units) = 1.61e7.
For CG34273 [DRSC13041], the values are calcium entry signal, replicate 1 (fluorescence units) = 2.63e7; calcium entry signal, replicate 2 (fluorescence units) = 4.15e7; resting calcium signal, replicate 1 (fluorescence units) = 1.17e7; resting calcium signal, replicate 2 (fluorescence units) = 1.86e7.
Against CG13426 [DRSC06388] the deposit lists calcium entry signal, replicate 1 (fluorescence units) = 4.84e7; calcium entry signal, replicate 2 (fluorescence units) = 3.44e7; resting calcium signal, replicate 1 (fluorescence units) = 2.05e7; resting calcium signal, replicate 2 (fluorescence units) = 1.99e7.
CG7745 [DRSC07037] scored calcium entry signal, replicate 1 (fluorescence units) = 2.89e7; calcium entry signal, replicate 2 (fluorescence units) = 2.64e7; resting calcium signal, replicate 1 (fluorescence units) = 1.34e7; resting calcium signal, replicate 2 (fluorescence units) = 1.28e7.
After knock-down of CG7745 [DRSC23103] the results were calcium entry signal, replicate 1 (fluorescence units) = 4.84e7; calcium entry signal, replicate 2 (fluorescence units) = 3.97e7; resting calcium signal, replicate 1 (fluorescence units) = 2.29e7; resting calcium signal, replicate 2 (fluorescence units) = 1.65e7.

Single entries from above.
Under “resting calcium signal, replicate 2 (fluorescence units)”, CG34273 [DRSC13041] is entered as 1.86e7
Entry for CG7745 [DRSC23103] under “resting calcium signal, replicate 1 (fluorescence units)”: 2.29e7

Continued.
CG17738 [DRSC15257] gave calcium entry signal, replicate 1 (fluorescence units) = 3.05e7; calcium entry signal, replicate 2 (fluorescence units) = 2.44e7; resting calcium signal, replicate 1 (fluorescence units) = 1.79e7; resting calcium signal, replicate 2 (fluorescence units) = 1.38e7.
Silencing of CG5707 [DRSC08573] resulted in: calcium entry signal, replicate 1 (fluorescence units) = 3.91e7; calcium entry signal, replicate 2 (fluorescence units) = 3.62e7; resting calcium signal, replicate 1 (fluorescence units) = 1.72e7; resting calcium signal, replicate 2 (fluorescence units) = 1.63e7.
After knock-down of slim [DRSC06921], the screen gave calcium entry signal, replicate 1 (fluorescence units) = 3.94e7; calcium entry signal, replicate 2 (fluorescence units) = 4.08e7; resting calcium signal, replicate 1 (fluorescence units) = 1.82e7; resting calcium signal, replicate 2 (fluorescence units) = 2.01e7.
After knock-down of CG13760 [DRSC18617], the screen gave calcium entry signal, replicate 1 (fluorescence units) = 3.26e7; calcium entry signal, replicate 2 (fluorescence units) = 4.61e7; entry to resting ratio 2.2; resting calcium signal, replicate 1 (fluorescence units) = 1.47e7; resting calcium signal, replicate 2 (fluorescence units) = 1.82e7.
After knock-down of CG34268 [DRSC07874] the results were calcium entry signal, replicate 1 (fluorescence units) = 4.02e7; calcium entry signal, replicate 2 (fluorescence units) = 4.63e7; resting calcium signal, replicate 1 (fluorescence units) = 2.13e7; resting calcium signal, replicate 2 (fluorescence units) = 2.23e7.
After knock-down of CG30378 [DRSC05071], the screen gave calcium entry signal, replicate 1 (fluorescence units) = 3.24e7; calcium entry signal, replicate 2 (fluorescence units) = 5.87e7; resting calcium signal, replicate 1 (fluorescence units) = 1.60e7; resting calcium signal, replicate 2 (fluorescence units) = 2.37e7.
Knock-down of CG7772 [DRSC20056] resulted in: calcium entry signal, replicate 1 (fluorescence units) = 4.29e7; calcium entry signal, replicate 2 (fluorescence units) = 4.78e7; resting calcium signal, replicate 1 (fluorescence units) = 1.94e7; resting calcium signal, replicate 2 (fluorescence units) = 2.19e7.
Depletion of CG5196 [DRSC15735] gave: calcium entry signal, replicate 1 (fluorescence units) = 3.05e7; calcium entry signal, replicate 2 (fluorescence units) = 3.48e7; resting calcium signal, replicate 1 (fluorescence units) = 1.50e7; resting calcium signal, replicate 2 (fluorescence units) = 1.81e7.
With knock-down of promL [DRSC08733], the screen gave calcium entry signal, replicate 1 (fluorescence units) = 3.55e7; calcium entry signal, replicate 2 (fluorescence units) = 2.95e7; resting calcium signal, replicate 1 (fluorescence units) = 2.36e7; resting calcium signal, replicate 2 (fluorescence units) = 1.24e7.
